As a reminder, the IC50 is the point on the concentration scale where inhibition reaches its midpoint. A higher IC50 goes with weaker potency.

Chains of the proteins cited; added tags and fusions are not shown. Residues count along the entry.
UniProt Q9WTR4, 1-597: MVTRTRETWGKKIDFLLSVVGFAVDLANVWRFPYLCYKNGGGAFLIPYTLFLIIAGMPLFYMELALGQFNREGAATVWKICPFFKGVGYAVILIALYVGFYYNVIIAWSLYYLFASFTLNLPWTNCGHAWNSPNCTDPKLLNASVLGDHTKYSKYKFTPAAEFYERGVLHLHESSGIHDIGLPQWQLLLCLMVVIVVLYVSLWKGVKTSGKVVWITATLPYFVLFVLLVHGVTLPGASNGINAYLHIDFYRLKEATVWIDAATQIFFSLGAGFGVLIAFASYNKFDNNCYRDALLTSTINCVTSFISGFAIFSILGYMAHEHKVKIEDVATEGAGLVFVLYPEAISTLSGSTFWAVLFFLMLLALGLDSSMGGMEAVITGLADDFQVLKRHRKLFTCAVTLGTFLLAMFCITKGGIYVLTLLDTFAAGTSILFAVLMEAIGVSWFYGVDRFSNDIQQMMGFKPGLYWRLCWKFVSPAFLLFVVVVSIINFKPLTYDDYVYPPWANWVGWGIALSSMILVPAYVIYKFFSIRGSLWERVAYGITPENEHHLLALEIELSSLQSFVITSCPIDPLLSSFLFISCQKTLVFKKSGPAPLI

Consider 1 compound from patent publication US8022102B2, “Unsaturated tetracyclic tetrahydrofuran derivatives” (Janssen Pharmaceutica, NV, priority 2004, dated 2011).

Structures are written as SMILES.

The target in this assay is T1, NET (Rattus norvegicus, UniProt Q9WTR4).
T1 construct: Cortex from rat brain was collected and homogenised; from tissue; host or cells: rat brain cortex
Briefly: In vitro determination of NET reuptake inhibition ([3H]Nixosetine binding, rat brain cortex). On the procedure: Cortex from rat brain was collected and homogenised using an Ultra-Turrax T25 and a Dual homogeniser in ice-cold homogenising buffer containing Tris, NaCl and KCl (50 mM, 120 mM and 5 mM, respectively, pH 7.4) prior to dilution to an appropriate protein concentration optimised for specific and non-specific binding. […] Membrane-bound activity was detected by filtration through a Packard Filtermate harvester onto GF/B Unifilterplates, washed with ice-cold Tris-HCl buffer, containing NaCl and KCl (50 mM, 120 mM and 4 mM; pH 7.4; 6×0.5 ml). Filters were allowed to dry for 24 h before adding scintillation fluid. Scintillation fluid was allowed to saturate filters for 24 h before counting in a Topcount scintillation counter. Percentage specific bound and competition binding curves were calculated using S-Plus software (Insightful).

With `CN(CC(=O)N(C)C)C[C@H]1CC2=C(O1)c1cc(F)ccc1Cc1ccccc12` [Compound 117], the IC50 is 794 nM.
